Assay results published in patent US20120004117A1.
No constants are given. Whether binding was seen depends on the method and setting. Some binding calls cover weakened binding; strength is not graded here. For some of these results: Sequences can lack the tags named with a protein.

By UniProt entry, the sequences of proteins in these tests, tags left out. Where a name states a change or a piece, a line headed by the entry shows the natural chain unless it says otherwise.
UniProt Q53R12: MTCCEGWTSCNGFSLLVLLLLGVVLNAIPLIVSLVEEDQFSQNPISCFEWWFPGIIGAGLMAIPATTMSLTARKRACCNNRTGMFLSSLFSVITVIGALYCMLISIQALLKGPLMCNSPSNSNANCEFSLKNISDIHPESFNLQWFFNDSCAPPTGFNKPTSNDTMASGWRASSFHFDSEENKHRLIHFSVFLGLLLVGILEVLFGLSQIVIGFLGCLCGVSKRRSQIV

T1: N-terminally HA-tagged chimeric TM4SF20 version 1 expressed on CHO DG44 cells (chimeric TM4SF20 ver.1_CHO) (human TM4SF20 with the first loop (amino acids 36-44) substituted by that of mouse TM4SF20) (UniProt Q53R12)
T1 sequence: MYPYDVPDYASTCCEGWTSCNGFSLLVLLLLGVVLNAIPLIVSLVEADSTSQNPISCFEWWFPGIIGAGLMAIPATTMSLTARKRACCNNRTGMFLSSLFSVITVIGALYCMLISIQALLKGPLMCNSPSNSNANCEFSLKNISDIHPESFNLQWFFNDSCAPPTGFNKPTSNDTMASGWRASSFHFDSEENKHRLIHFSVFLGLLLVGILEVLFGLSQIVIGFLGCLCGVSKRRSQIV

B1: anti-TM4SF20 antibody B8 (antibody, mouse IgG2b, V domains shown)
VH: RVQLKESGPDLVQPSQTLSLTCTVSGFSLTNYGVHWIRQPPGKGLEWVGTVGWDDKKYYNSVLKSRLSINRDTSKNQVFLKLSSLQTEDTAMYYCTPYYDGSPYVMDYWGQGTSVTVSS
VL: DIVMSQSPSSLAVSAGEKVTMTCKSSQSLFDSGTRKNYLAWYQQKPGQSPKLLIYWASTRESGVPDRFTGSGSGTDFTLTISSVQAEDLAVYYCKQSYYLLTFGAGTKLELK
B2: anti-TM4SF20 antibody B15 (antibody, mouse IgG2a, V domains shown)
VH: B1 VH
VL: B1 VL
B3: anti-TM4SF20 antibody C7 (antibody, mouse IgG1, V domains shown)
VH: QVQLKESGPDLVQPSQTLSLTCTVSGFSLSSYGVHWVRQPPGKGLEWVGTMGWDDKKYYNSALNSRLSLSRDTSKNQVFLKLSSLQTEDTAMYYCTRDYYSDGSFAYWGQGTLVTVSA
VL: DVLMTQTPLSLPVSLGDQASISCKSSQSIVHSDGNTYLQWYLQKPGQSPKLLIYKVSNRFSGVPDRFSGSGSGTDFTLKISRVEAEDLGIYYCFQGSHVPPTFGTGTKLEIK
B4: anti-TM4SF20 antibody C9 (antibody, mouse IgG1, V domains shown)
VH: B3 VH
VL: B3 VL

The binders below were run against C-terminally HA-tagged TM4SF20 expressed on CHO DG44 cells (TM4SF20_CHO) (human) (UniProt Q53R12) (assay: flow cytometry, hybridoma culture supernatant at 10 µg/mL on TM4SF20_CHO cells).

binding	Binder
binds	B1
binds	B2
binds	B3
binds	B4

What follows are binders tested against human TM4SF20 (Transmembrane 4 L6 family member 20), endogenous (human) (UniProt Q53R12) (assay: flow cytometry, purified antibody at 10 µg/mL on A549 cells).

binding	Binder
binds	B1
binds	B2
binds	B3
binds	B4

The binders below were run against N-terminally HA-tagged TM4SF20 expressed on Ba/F3 cells (TM4SF20_Ba/F3) (human) (UniProt Q53R12) (assay: flow cytometry screening of hybridoma supernatants on TM4SF20_Ba/F3 against parental Ba/F3 cells).

binding	Binder
binds	B1
binds	B2
binds	B3
binds	B4

These binders were tested against T1, N-terminally HA-tagged chimeric TM4SF20 version 1 expressed on CHO DG44 cells (chimeric TM4SF20 ver.1_CHO) (human TM4SF20 with the first loop (amino acids 36-44) substituted by that of mouse TM4SF20) (assay: flow cytometry, hybridoma culture supernatant on chimeric TM4SF20 ver.1_CHO cells).

binding	Binder
binds	B1
binds	B2
binds	B3
binds	B4
